According to PubChem BioAssay AID1688 (National Center for Advancing Translational Sciences (NCATS), 2009):
Screen size: about 220,000 compounds; about 2,400 (1.1%) were called active. Inconclusive means that the source gave no clear call. Such entries were picked first, then a sample of the others. Calls come from the whole dose curve; as a rule, active = well fitted inhibition curve with a large enough effect; inconclusive = small, poorly fitted or top-dose-only effect, or effect the other way; inactive = no such curve, though single readings can be large or run the other way. Potencies beside an inconclusive call are fits to weak or partial responses and may not hold up.

assay: qHTS Multiplex Assay to Identify Dual Action Probes in a Cell Model of Huntington: Aggregate Formation (GFP); conditions: PC12 HttQ103-GFP aggregates, Acumen cytometry, 40 h; activity change, negative = inhibition: at 46.1 µM (top of the series) unless noted; note: nearly all actives have a fitted effect of over 60% in size
Procedure, shortened: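 Aggregate formation scored by laser-scanning cytometer (488 excitation, 500–530 emission) in lysed PC12 cells expressing Q103-GFP after 100 nM tebufenozide induction; library tested in dose series, with ATPLite reagent added in the multiplex.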
% is set by controls: 0 for no effect and ±100 for the full control effect; potency is the fitted concentration of half-maximal effect.

Row | SMILES | Potency | activity change, negative = inhibition
1 | O=C(CSc1c(Cl)cccc1Cl)N1CCC(c2nc3ccccc3s2)CC1 | active: 11.2 µM | –
2 | CN(C)C=C1C(=O)c2ccccc2C1=O | inconclusive: 12.6 µM [inhibitor, single point] | –
3 | COc1ccc(C2CC(=O)N3CN(c4ccccc4F)CSC3=C2C#N)cc1OC (stereo not given) | – | inactive: 1.27%
4 | COc1ccc(CNC(=O)c2csc(Cc3ccc(Cl)cc3)n2)cc1 | inconclusive: 22.4 µM [inhibitor, single point] | –
5 | CCn1c(CNc2ccc(Cl)cc2)nnc1SCc1ccc(C)cc1 | inconclusive: 35.5 µM [inhibitor, single point] | –
6 | C=CCNC(=S)NNC(=O)c1ccc(OC(C)C)cc1 | inconclusive: 12.6 µM [inhibitor, single point] | –
7 | C=CCN(CC=C)S(=O)(=O)c1ccc2nc(NC(=O)C(C)C)sc2c1 | inconclusive: 5.62 µM [inhibitor, partial curve] | –
8 | CCc1ccc(-c2cc(C(=O)NCc3ccco3)c3ccccc3n2)s1 | inconclusive: 35.5 µM [activator, single point] | –
9 | Cc1nc(C)c(C(=O)Nc2ccccc2-c2ccccc2)o1 | inconclusive: 35.5 µM [inhibitor, single point] | –
10 | CC(Oc1ccc(Cl)cc1Cl)C(=O)Nc1ccc(OCC(=O)O)cc1 (stereo not given) | inconclusive: 0.501 µM [inhibitor, full curve, poor fit] | –
11 | O=[N+]([O-])c1ccccc1NC(=S)N/N=C/c1ccc(O)c(O)c1 | inconclusive: 17.8 µM [activator, single point] | –
12 | O=C(CSc1nc(O)cc(=O)n1-c1ccccc1)Nc1ccc(Br)cn1 | inconclusive: 3.55 µM [activator, partial curve, poor fit] | –
13 | Cc1cc(C)c(C#N)c(OCC(=O)c2ccccc2)n1 | – | inactive: -32.7%
14 | COc1ccc(OC)c(-c2csc(NC(=O)c3ccc(OCC4CCCO4)cc3)n2)c1 (stereo not given) | inconclusive: 15.8 µM [inhibitor, partial curve] | –
15 | Nc1n[nH]c2cc(=O)n(-c3cccc(C(F)(F)F)c3)nc12 | inconclusive: 0.562 µM [activator, full curve, poor fit] | –
16 | CCN(Cc1nc2ccccc2c(=O)[nH]1)Cc1nc2ccsc2c(=O)[nH]1 | inconclusive: 8.91 µM [inhibitor, partial curve] | –
17 | Cn1cc(S(=O)(=O)Nc2cccc(F)c2)c(=O)n(C)c1=O | – | inactive: -6.96%
18 | CN(C)C=Nc1c(Br)cc(Br)c2nonc12 | inconclusive: 10 µM [inhibitor, single point] | –
19 | Cc1cc(OCC(=O)Nn2cnnc2)c(C)cc1Br | – | inactive: -1.8%
20 | COC1=CC(=O)CC(C)C12Oc1c(Cl)c(OC)cc(OC)c1C2=O (stereo not given) | inconclusive: 11.2 µM [activator, partial curve] | –
21 | C[C@@H](C(=O)Nc1ccc2ccccc2c1)[C@H]1C[C@]1(C)[C@H](NC(=O)c1cccnc1)c1ccccc1 | inconclusive: 8.91 µM [inhibitor, partial curve] | –
22 | Clc1ccc(-n2ncc3c(NCc4cccs4)ncnc32)cc1 | inconclusive: 10 µM [inhibitor, partial curve] | –
23 | Cc1cc2c(cc1C)CSC(c1ccccc1OC(=O)C(C)(C)C)SC2 | – | inactive: -16%
24 | O=C(NCc1cccnc1)c1ccccc1-c1ccccc1 | inconclusive: 1.26 µM [activator, single point] | –

Row | SMILES | Potency | activity change, negative = inhibition
25 | Cc1cc2oc(=O)cc(Cn3ncc(Cl)c(Cl)c3=O)c2cc1Cl | inconclusive: 35.5 µM [inhibitor, single point] | –
26 | c1ccc(C[n+]2c(-c3ccccc3)csc2Nc2ccccc2)cc1 | inconclusive: 3.16 µM [inhibitor, single point] | –
27 | Cc1ccccc1N1CCN(C(=O)c2ccc(Oc3ccc(C(F)(F)F)cn3)cc2)CC1 | inconclusive: 22.4 µM [inhibitor, single point] | –
28 | Cc1ccc(S(=O)(=O)/C(C#N)=C/c2c[nH]c3ccccc23)cc1 | – | inactive: -14.3%
29 | O=C1C(Nc2ccccc2)=C/C(=N/S(=O)(=O)c2cccs2)c2ccccc21 | active: 6.31 µM | –
30 | O=C(O)[C@H]1C(=CCO)O[C@H]2CC(=O)N12 | – | inactive: -1.34%
31 | COc1cccc(Nc2nnc(SCc3nc4ccccc4s3)s2)c1 | inconclusive: 8.91 µM [inhibitor, partial curve, poor fit] | –
32 | Cc1[nH]n(-c2cccc(Cl)c2)c(=O)c1-c1ccc(Cl)cc1 | inconclusive: 10 µM [inhibitor, partial curve] | –
33 | COC(=O)Oc1ccc(/C=C/C(=O)OC(C)C)cc1OC(=O)OC | inconclusive: 22.4 µM [inhibitor, single point] | –
34 | c1ccc(-c2cc(N3CCOCC3)nc3ccccc23)cc1 | inconclusive: 35.5 µM [inhibitor, single point] | –
35 | COc1cc2c3nnc(-c4ccc(F)cc4)c-3cn(Cc3ccc(F)cc3)c2cc1OC | inconclusive: 35.5 µM [inhibitor, single point] | –
36 | O=C(Cn1nc(-c2cccc([N+](=O)[O-])c2)c2ccccc2c1=O)Nc1cccnc1 | – | inactive: -1.7%
37 | N/C(=N\OC(=O)COc1ccccc1Cl)c1ccc(Cl)cc1 | inconclusive: 35.5 µM [inhibitor, single point] | –
38 | CC(C)(C)c1ccc(Cn2nnc3c(=O)[nH]c(C4CCN(C(=O)Cc5cccs5)CC4)nc32)cc1 | active: 12.6 µM | –
39 | O=C1S/C(=C\C=C\c2ccco2)C(=O)N1c1ccccc1 | inconclusive: 35.5 µM [activator, single point] | –
40 | Cc1cc(C)n2nc(SCC(=O)N(Cc3ccccc3)C3CCS(=O)(=O)C3)nc2n1 (stereo not given) | inconclusive: 2.24 µM [activator, single point] | –
41 | Cc1nnc(SCC(=O)Nc2nsc(-c3ccccc3)n2)s1 | active: 12.6 µM | –
42 | Cc1cc(C(=O)N/N=C/c2ccc(Cl)c([N+](=O)[O-])c2)c(C)n1-c1ccc(F)cc1 | inconclusive: 35.5 µM [activator, partial curve] | –
43 | Cc1ccc2cc(CN(Cc3ccccc3)Cc3nnnn3C3CCCC3)c(=O)[nH]c2c1 | inconclusive: 35.5 µM [inhibitor, single point] | –
44 | COc1ccc(OC)c(NC(=O)CNC(=O)Cn2c(C)cc3ccccc3c2=O)c1 | – | inactive: 22.6% [at 9.22 µM]
45 | COc1ccc(NC(=O)c2ccc3c(c2)NC(=O)CS3)cc1S(=O)(=O)Nc1ccc(Br)cc1 | active: 17.8 µM | –
46 | O=C(CO/N=C/c1ccc(OC(F)F)cc1)NC1CCCCCC1 | – | inactive: 2.53%
47 | CC(=O)NCC(=O)OCC(=O)c1ccc(Cl)cc1 | – | inactive: 10.5%
48 | O=C(CC1CC2CCC1C2)Nc1nc(-c2ccccn2)cs1 (stereo not given) | inconclusive: 11.2 µM [inhibitor, partial curve, poor fit] | –

Structures shown so far containing a COOH group:
Row | SMILES | Potency | activity change, negative = inhibition
10 | CC(Oc1ccc(Cl)cc1Cl)C(=O)Nc1ccc(OCC(=O)O)cc1 (stereo not given) | inconclusive: 0.501 µM [inhibitor, full curve, poor fit] | –
30 | O=C(O)[C@H]1C(=CCO)O[C@H]2CC(=O)N12 | – | inactive: -1.34%

(listing goes on)

Row | SMILES | Potency | activity change, negative = inhibition
49 | CCn1c(O)c(N=NC(=O)CNc2cccc(C)c2)c2ccccc21 | inconclusive: 35.5 µM [activator, single point] | –
50 | Fc1cccc(Cn2cc(C(=S)N3CCCCC3)c3ccccc32)c1 | inconclusive: 11.2 µM [inhibitor, single point] | –
51 | Cc1nn(CCO)c2c1C(=O)CCC2 | inconclusive: 12.6 µM [inhibitor, single point] | –
52 | CC(C)CC1=NN(C(=O)c2ccco2)C(O)(C(F)(F)F)C1 (stereo not given) | – | inactive: -6.06% [at 9.22 µM]
53 | COc1ccc(C2=CSC3=NNC4(CCCCC4)NN23)cc1 | inconclusive: 35.5 µM [inhibitor, single point] | –
54 | COc1ccc(N(C(C)C(=O)N/N=C/c2cc(Br)c(C)o2)S(C)(=O)=O)cc1 (stereo not given) | inconclusive: 0.794 µM [inhibitor, single point] | –
55 | Cc1c(C(=O)OCC(=O)N2CC(C)OC(C)C2)oc2ccc(Br)cc12 (stereo not given) | – | inactive: -10%
56 | Cc1sc2ncnc(N/N=C/c3ccccc3O)c2c1C | active: 2.51 µM | –
57 | COc1cc(C)nc(NCc2ccccc2)n1 | inconclusive: 14.1 µM [activator, partial curve] | –
58 | CC(C)Cn1c(N)c(C(=O)NCc2cccs2)c2nc3ccccc3nc21 | inconclusive: 22.4 µM [inhibitor, single point] | –
59 | CCCCCCCCCCCCCCCCCC(=O)OCC(O)CO (stereo not given) | – | inactive: 4.83%
60 | O=C(C1CC1)N1CCC(c2nc(-c3ccc(S(=O)(=O)NCC4CCCO4)cc3)no2)CC1 (stereo not given) | inconclusive: 11.2 µM [inhibitor, partial curve] | –
61 | O=[N+]([O-])c1ccc(N=Nc2c(Cl)cc(O)cc2Cl)cc1 | – | inactive: -35% [at 9.22 µM]
62 | COC(=O)c1ccc(C2C(C(C)=O)=C(C)Nc3ncnn32)cc1 (stereo not given) | – | inactive: -2.75%
63 | Cc1nc([N+](=O)[O-])c(Sc2nc3ccccc3[nH]2)n1Cc1ccccc1 | inconclusive: 35.5 µM [inhibitor, single point] | –
64 | CCO[C@H]1OC(C(=O)O)=C[C@@H](C2CC2)[C@@H]1CCCO | – | inactive: -5.93% [at 9.22 µM]
65 | COC(=O)c1ccc2nc(-c3ccc(S(C)(=O)=O)cc3)cn2c1 | – | inactive: 14.7%
66 | C/C(=N/NC(=O)c1cn(-c2cccc(C)n2)cn1)c1ccc(C)cc1 | inconclusive: 4.47 µM [inhibitor, single point] | –
67 | O=C(/C=C/c1ccco1)NC(=S)NNC(=O)c1ccco1 | inconclusive: 10 µM [inhibitor, partial curve] | –
68 | CC(C)(C)NC(=O)COC(=O)c1ccccc1Nc1ccc(SC(F)F)cc1 | inconclusive: 17.8 µM [inhibitor, partial curve] | –
69 | CCOC(=O)c1c(NC(=S)Nc2cc([N+](=O)[O-])ccc2OC)sc2c1CCCCC2 | – | inactive: -16.1%
70 | COCCNc1ncnc2nc[nH]c12 | inconclusive: 35.5 µM [inhibitor, single point] | –
